Some entries share one result that the patent states for a list of compounds.
Experiment: Diafiltration study of kinetically and thermodynamically bound drug
Format: physicochemical
Details: HALMD/PSS NPs
Protocol: Diafiltration studies were carried out to determine the fraction of amitriptyline (AMT) that was kinetically or thermodynamically bound to poly(sodium 4-styrenesulfonate (PSS) as the nanoparticle. For this study, diafiltration was been modeled as a two-compartment system, where a continuous liquid supply from the donor chamber (reservoir) is kept, maintaining a constant volume in the diafiltration cell. The unit used for diafiltration analyses consisted of a diafiltration cell, a regenerated cellulose membrane, a reservoir, a […], and a pressure source. […] The volume in the filtration cell was kept constant during the experiment, by creating a continuous flux of liquid through the diafiltration cell, from the reservoir to the collector tube. […] A total of 8 samples (approx. 5 mL) were collected and AMT concentration in each sample was determined by spectrophotometry. Subsequently, the thermodynamically bound (TB) and kinetically bound (KB) fractions were determined as follows: TB=v(km-j)/km KB=u-um The parameters v and u represent the initial fraction of AMT thermodynamically bound to the particles, thus in equilibrium, and the fraction bound to the nanocarriers whose release is kinetically controlled, respectively. […] A total of 8 samples (approx. 5 mL) were collected and the concentration of the interest species in each sample was determined by spectrophotometry. […]

Compound: CC(CN1c2ccccc2Sc2ccccc21)N(C)C (stereo not shown) [Promethazine]
- drug association attributed to kinetic binding: ≥ 90%

Source: patent US11413349B2, “Green methodology to create polymeric nanocarriers containing hydrophilic low molecular-weight drugs and providing a very high drug loading and a very high prolonged release” (UNIVERSIDAD DE CHILE, priority 2019, dated 2022)
